Data on one substance can be found in PMC8117158.

The chains behind the UniProt entries cited, without tags or fusion partners.
UniProt P0A6B7: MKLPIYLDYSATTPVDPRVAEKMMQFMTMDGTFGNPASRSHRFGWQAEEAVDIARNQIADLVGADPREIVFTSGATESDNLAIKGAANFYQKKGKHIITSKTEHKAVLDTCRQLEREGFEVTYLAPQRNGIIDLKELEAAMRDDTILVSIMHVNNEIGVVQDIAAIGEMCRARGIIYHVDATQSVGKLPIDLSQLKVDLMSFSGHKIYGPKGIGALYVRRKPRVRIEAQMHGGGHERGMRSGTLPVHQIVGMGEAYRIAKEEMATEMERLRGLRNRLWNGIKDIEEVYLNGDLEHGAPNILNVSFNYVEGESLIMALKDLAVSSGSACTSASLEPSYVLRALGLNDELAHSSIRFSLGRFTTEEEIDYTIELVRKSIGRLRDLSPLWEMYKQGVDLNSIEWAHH
UniProt P0ACD4: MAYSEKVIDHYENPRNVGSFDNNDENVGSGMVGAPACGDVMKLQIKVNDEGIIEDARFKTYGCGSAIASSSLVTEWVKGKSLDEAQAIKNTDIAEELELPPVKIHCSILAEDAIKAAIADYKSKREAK

These are yes or no findings as the source states them, for the method shown. Binding seen in cells or lysates may run through a third protein. Some entries that bind do so weakly or less than the wild type.

The target in the assay is IscS-H6 (E. coli K-12) (UniProt P0A6B7). The experiment in a line: pull-down; cells co-expressing the proteins treated with 1% formaldehyde (in vivo cross-linking); extracts loaded on Ni-chelating Sepharose in 20 mM Tris-HCl pH 7.9, 0.5 M NaCl, washed with 60 mM imidazole, eluted with 1 M imidazole; SDS-PAGE.

For IscU-S (from UniProt P0ACD4 1-128), the binding result is “binds”.
